Read-outs that look alike come from different tables or passages of the source.
Key:
[1] = in vivo, polarization in 100% water

`[2H]C(C(=O)OCC)C([2H])[13C](=O)OCC` (stereo not drawn) [diethyl 1-^13C 2,3-d2 succinate] showed a T1 [1] of 24 s, a polarization percentage (after systematically changing the pulse sequence) of 2.1 and a polarization percentage (before systematically changing the pulse sequence) of 0.19±0.06%.
